Experimental data reported in patent publication US7524851B2 (Robert Bosch Gesellschaft fur Medizinische Forschung (RBMF), priority 2003, dated 2009).
Some results were stated once for a whole list of compounds, not compound by compound.

Legend:
[1] = tested on: primary CD4+ T lymphocytes; assay: Annexin V/propidium iodide FACS apoptosis of stimulated primary blood CD4+ T lymphocytes; type: cell-based, human; settings: kinetic studies, FIG. 2b
Description: Isolation of primary CD4^+ T lymphocytes and lamina propria cells: Human peripheral blood mononuclear cells (PBMCs) from healthy volunteers (25-42 years of age) and patients with Crohn's disease (31-65 years of age) were isolated using Ficoll-Hypaque gradients. PBMCs were further purified using CD4 monoclonal antibodies attached to immunomagnetic beads according to the manufacturer's protocol, followed by treatment with Detachabead (Dynal; Oslo, Norway). In some cases, CD4^+ T cells were further separated by negative selection techniques using CD45RO or CD45RA monoclonal antibodies (PharMingen; Heidelberg, Germany) and immunomagnetic beads (Dynal). […]
For FACS analysis, apoptotic cells were detected by staining with annexin V and propidium iodide using the Annexin V FITC Apoptosis Detection Kit I (PharMingen) (Atreya et al., Nat. Med. 6:583-588 (2000)). […] To verify the results obtained with the annexin V/propidium iodide staining, analysis of T cells displaying DNA fragmentation was also determined by the Nicoletti technique, as described in (Nicoletti et al., J. Immunol. Methods 139:271-279 (1991)). […] Finally, cells were analyzed on a FACScan flow cytometer. […]

[2] = long-term azathioprine or 6-MP treatment; Cuffari et al.; cited from earlier work

## Sc1ncnc2nc[nH]c12 [6-MP, 6-mercaptopurine]
[1]
  days of cell culture after which T cell apoptosis was induced: 4 to 5 days
[2]
  6-TG levels in leukocytes of patients with Crohn's disease: 100-2,305 pmol/mg DNA
